This is one part of the list. Most values lie at the level of the controls, where differences are scatter.

Sequences of proteins named here, by UniProt entry; tags and fusion partners are left off. A change or cut given only in a name is not applied to a line headed by its entry.
UniProt Q8VCC1: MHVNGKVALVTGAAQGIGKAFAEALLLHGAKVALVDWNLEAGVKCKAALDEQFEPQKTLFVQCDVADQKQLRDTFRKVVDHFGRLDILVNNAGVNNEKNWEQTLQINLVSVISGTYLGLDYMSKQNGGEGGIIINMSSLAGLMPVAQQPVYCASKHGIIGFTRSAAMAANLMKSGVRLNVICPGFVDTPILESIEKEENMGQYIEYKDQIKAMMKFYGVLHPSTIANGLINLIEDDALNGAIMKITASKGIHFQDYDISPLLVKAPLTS
UniProt Q8CGK3: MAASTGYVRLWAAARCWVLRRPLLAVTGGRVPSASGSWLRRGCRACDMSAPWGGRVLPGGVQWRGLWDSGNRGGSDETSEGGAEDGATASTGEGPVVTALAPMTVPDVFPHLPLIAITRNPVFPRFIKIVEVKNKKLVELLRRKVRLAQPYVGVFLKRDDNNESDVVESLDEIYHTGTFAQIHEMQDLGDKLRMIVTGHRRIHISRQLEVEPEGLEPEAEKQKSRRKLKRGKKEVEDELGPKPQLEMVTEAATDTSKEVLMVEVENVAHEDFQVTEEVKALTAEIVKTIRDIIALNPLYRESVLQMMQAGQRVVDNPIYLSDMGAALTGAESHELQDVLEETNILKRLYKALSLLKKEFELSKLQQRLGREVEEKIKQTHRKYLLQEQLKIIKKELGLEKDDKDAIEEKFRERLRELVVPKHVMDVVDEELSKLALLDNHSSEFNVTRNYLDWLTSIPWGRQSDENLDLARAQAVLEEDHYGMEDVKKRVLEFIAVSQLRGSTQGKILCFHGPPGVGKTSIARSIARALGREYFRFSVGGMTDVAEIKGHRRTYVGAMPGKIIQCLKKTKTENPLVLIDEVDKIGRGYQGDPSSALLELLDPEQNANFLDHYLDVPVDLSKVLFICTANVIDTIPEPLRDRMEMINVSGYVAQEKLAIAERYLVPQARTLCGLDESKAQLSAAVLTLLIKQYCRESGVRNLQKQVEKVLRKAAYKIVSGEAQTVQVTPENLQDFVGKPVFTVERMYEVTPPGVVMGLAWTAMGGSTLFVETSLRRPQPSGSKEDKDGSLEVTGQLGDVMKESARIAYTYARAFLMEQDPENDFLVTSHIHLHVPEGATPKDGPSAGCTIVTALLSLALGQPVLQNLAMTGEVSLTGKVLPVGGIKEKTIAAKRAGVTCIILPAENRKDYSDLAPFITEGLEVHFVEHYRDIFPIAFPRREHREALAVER
UniProt Q8K5B2: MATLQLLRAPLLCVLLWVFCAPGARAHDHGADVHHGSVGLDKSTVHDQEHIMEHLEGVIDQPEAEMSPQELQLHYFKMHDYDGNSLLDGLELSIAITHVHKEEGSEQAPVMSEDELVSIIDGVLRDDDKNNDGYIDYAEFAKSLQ
UniProt Q8R5M8: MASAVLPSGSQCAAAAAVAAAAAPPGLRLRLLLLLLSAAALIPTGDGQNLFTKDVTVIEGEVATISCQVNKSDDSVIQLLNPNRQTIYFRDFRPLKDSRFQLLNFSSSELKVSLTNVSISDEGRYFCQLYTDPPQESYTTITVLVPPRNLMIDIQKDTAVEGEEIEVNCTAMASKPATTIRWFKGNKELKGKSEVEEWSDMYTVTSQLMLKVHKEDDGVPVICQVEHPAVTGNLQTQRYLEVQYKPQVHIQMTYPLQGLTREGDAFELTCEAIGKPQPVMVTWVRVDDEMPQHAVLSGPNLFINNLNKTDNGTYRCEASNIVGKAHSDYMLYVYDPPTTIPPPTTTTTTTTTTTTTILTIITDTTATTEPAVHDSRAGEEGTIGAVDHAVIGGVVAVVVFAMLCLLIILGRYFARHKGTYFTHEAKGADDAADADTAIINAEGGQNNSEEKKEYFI
UniProt Q8R480: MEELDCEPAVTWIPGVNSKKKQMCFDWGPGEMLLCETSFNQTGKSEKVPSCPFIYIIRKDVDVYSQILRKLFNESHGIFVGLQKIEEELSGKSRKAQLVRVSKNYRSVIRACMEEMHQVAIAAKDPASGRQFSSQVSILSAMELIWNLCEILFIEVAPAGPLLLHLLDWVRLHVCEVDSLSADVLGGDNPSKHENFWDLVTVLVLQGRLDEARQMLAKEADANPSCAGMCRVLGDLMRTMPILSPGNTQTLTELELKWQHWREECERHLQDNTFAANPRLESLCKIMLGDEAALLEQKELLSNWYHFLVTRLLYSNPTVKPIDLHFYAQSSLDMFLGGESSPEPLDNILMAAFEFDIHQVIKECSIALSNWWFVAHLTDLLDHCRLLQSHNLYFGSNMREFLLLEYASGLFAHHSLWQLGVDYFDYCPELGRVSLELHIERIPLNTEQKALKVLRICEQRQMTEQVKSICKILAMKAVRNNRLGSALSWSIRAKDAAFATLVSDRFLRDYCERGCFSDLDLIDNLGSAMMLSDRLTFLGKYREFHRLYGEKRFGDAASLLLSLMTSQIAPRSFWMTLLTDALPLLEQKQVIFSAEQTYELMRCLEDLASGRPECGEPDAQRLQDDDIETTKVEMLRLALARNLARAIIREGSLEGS
UniProt Q8R344: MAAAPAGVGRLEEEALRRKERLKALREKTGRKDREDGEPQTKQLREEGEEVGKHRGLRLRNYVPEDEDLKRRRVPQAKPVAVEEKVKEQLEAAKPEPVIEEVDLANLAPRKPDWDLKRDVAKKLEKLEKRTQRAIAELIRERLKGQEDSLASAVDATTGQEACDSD
UniProt Q8CHP5: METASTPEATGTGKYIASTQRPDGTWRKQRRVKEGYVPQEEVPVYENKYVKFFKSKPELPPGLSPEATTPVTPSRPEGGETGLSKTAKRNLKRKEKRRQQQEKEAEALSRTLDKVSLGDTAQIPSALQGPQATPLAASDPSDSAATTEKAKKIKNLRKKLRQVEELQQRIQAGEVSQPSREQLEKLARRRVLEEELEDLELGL
UniProt Q8K183: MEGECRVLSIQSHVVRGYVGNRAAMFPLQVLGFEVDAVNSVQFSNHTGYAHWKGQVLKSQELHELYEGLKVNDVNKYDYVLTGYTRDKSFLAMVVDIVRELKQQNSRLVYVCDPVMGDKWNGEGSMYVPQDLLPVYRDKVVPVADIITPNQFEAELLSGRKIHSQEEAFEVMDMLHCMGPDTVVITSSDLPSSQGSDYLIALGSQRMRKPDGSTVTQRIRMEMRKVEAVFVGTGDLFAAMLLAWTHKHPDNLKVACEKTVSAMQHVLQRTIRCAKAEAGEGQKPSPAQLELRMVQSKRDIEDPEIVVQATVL
UniProt Q8K2Q9, whole entry: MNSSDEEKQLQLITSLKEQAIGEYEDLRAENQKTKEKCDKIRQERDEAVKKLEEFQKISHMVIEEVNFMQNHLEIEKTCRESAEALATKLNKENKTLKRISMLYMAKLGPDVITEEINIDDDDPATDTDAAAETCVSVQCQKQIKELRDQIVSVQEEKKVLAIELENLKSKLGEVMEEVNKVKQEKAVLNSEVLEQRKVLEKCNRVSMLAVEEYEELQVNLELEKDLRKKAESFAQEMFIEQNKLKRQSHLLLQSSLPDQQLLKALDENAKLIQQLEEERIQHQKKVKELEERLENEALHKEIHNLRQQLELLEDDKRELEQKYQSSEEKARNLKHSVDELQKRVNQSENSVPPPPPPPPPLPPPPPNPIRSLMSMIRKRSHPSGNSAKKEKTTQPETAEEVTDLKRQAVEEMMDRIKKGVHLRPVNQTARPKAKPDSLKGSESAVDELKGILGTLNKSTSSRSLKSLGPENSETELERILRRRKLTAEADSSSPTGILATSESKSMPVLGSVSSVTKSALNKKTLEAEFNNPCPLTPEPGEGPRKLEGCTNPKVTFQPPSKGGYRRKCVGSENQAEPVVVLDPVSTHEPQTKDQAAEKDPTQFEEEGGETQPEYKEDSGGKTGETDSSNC
UniProt Q8R1T4: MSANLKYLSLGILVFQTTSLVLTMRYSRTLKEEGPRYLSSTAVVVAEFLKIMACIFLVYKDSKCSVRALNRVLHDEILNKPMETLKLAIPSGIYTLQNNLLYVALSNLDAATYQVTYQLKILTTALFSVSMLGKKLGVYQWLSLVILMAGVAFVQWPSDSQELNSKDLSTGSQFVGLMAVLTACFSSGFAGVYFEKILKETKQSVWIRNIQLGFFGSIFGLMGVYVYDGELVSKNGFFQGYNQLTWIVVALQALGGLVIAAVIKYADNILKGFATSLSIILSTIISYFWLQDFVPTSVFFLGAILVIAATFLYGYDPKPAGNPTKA
UniProt Q8K2L8: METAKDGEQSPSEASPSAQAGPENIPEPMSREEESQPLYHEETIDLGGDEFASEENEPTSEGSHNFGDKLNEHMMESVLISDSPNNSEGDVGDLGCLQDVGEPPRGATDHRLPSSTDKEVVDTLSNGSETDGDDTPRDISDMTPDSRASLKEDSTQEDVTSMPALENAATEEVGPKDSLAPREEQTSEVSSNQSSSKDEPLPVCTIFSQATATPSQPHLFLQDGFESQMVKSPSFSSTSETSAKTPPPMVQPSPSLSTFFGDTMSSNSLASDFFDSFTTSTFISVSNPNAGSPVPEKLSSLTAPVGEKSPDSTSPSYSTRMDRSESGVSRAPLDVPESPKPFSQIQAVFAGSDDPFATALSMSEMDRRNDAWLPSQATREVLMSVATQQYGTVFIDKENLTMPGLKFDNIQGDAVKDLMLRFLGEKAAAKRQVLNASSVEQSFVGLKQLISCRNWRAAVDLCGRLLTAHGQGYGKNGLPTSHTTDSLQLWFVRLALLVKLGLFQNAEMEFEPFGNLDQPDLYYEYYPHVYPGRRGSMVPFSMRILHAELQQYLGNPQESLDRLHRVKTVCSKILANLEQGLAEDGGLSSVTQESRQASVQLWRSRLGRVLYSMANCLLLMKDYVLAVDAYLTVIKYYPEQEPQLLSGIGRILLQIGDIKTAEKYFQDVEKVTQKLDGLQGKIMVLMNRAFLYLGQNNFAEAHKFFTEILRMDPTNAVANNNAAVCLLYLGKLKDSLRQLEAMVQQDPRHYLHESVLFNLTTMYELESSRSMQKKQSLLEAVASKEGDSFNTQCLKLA
UniProt Q8K135: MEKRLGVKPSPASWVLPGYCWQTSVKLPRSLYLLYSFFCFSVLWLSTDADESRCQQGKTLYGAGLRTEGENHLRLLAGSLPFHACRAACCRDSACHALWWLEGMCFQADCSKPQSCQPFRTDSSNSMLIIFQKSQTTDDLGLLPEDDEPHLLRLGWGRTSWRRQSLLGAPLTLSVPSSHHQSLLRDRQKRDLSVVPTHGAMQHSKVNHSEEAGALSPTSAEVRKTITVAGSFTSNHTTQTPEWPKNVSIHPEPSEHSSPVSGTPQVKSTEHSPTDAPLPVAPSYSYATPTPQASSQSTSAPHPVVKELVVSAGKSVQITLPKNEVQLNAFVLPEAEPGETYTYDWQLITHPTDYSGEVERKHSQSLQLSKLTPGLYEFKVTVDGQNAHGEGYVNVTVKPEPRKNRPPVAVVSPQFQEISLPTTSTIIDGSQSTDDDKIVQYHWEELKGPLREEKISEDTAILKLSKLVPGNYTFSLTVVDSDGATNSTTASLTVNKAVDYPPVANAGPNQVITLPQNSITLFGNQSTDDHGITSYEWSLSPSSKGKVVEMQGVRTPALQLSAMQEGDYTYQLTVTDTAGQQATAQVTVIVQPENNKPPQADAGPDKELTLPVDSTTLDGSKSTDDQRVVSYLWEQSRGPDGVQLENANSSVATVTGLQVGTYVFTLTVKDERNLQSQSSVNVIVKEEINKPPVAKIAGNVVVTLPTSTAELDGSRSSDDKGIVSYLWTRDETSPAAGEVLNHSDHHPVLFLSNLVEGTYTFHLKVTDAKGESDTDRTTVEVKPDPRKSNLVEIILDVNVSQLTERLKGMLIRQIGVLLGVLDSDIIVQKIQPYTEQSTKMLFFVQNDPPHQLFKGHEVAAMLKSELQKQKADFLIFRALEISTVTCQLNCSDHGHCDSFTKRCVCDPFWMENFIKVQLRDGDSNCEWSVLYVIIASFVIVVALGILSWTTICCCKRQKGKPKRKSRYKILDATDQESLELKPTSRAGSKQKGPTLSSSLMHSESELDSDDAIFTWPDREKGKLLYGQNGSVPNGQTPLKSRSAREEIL
UniProt Q8R0J7: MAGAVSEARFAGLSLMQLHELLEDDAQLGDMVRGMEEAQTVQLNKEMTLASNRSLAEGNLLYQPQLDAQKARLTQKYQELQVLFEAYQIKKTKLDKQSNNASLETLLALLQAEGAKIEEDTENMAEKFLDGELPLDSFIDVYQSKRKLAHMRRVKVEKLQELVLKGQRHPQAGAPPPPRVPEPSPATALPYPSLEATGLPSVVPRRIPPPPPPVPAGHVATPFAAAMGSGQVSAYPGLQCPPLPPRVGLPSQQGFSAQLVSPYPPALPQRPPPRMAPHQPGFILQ
UniProt Q8R3Q0: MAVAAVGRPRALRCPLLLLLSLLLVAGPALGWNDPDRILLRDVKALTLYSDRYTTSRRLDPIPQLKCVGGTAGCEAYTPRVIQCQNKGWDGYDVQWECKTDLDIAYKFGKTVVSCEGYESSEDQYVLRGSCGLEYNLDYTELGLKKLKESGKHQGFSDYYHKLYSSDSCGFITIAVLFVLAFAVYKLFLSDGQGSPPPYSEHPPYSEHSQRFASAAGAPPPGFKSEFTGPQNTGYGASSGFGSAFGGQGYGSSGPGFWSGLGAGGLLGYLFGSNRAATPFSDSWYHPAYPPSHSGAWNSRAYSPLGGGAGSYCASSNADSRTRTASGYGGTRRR

Results on 38 targets are retold here after the supplement of paper PMC12819154, “High-throughput peptide-centric local stability assay extends protein–ligand identification to membrane proteins, tissues and bacteria” (Nature Structural & Molecular Biology, 2025).

Compound in the assay: CN[C@@H]1C[C@H]2O[C@@](C)([C@@H]1OC)n1c3ccccc3c3c4c(c5c6ccccc6n2c5c31)C(=O)NC4 [staurosporine]
In words: log2 fold change of pooled soluble protein (PISA), ligand vs vehicle (log2 ratio); higher = more thermally stabilized. As to conditions: ligand concentration: 20 uM; assay format: PISA pool 52.9/55.5/58.6 C.
As for UniProt Q8VBT2, the “log2 fold change of pooled soluble protein” value (shortened to “log2 fold change”) is -0.0636. Consider UniProt Q8VCC1, for which the “log2 fold change” value is -0.0788.

On to UniProt Q8R1N0, for which the “log2 fold change” value was -0.149.

On to UniProt Q8CHK3, for which the “log2 fold change” value was -0.19. UniProt Q8CGK3: the “log2 fold change” value was -0.165.

Consider UniProt Q8CGZ0, for which the “log2 fold change” value was 0.253.

Turning to UniProt Q8R1S9, the “log2 fold change” value came to 0.0233. Then UniProt Q8CIN4, with 0.167. Then UniProt Q8VCL5, with 0.0193; and UniProt Q8R1S4, with 0.00995; and UniProt Q8JZQ2, with -0.0731.

Take UniProt Q8CHG3: the “log2 fold change” value was found to be 0.000137.

For UniProt Q8R1I1, the “log2 fold change” value is -0.00551.

With UniProt Q8JZU0, the “log2 fold change” value turned out to be 0.0359. With UniProt Q8VBT9, the “log2 fold change” value was determined as 0.107. In the case of UniProt Q8K5B2, the “log2 fold change” value came to 0.116. Then UniProt Q8R5M8, with 0.178; and UniProt Q8R480, with -0.195; and UniProt Q8R344, with -0.0352. In the case of UniProt Q8VC19, the “log2 fold change” value came out at 0.215. With UniProt Q8CI61, the “log2 fold change” value was determined as 0.155. Turning to UniProt Q8CHP5, the “log2 fold change” value was 0.00292. In the case of UniProt Q8R1Q9, the “log2 fold change” value came out at 0.0653. With UniProt Q8K183, the “log2 fold change” value is -0.446.

For the target UniProt Q8VBW8, the “log2 fold change” value was found to be 0.00358. Regarding UniProt Q8QZR3, the “log2 fold change” value is -0.0451. As to UniProt Q8K2Q9, the “log2 fold change” value was -0.00798. As to UniProt Q8K394, the “log2 fold change” value is -0.113. As to UniProt Q8QZR1, the “log2 fold change” value amounted to 0.0502. Take UniProt Q8R1T4: the “log2 fold change” value amounted to 0.185. Consider UniProt Q8K2L8, for which the “log2 fold change” value was -0.101. UniProt Q8K135: the “log2 fold change” value is -0.165. On to UniProt Q8K019, for which the “log2 fold change” value was -0.0572. Take UniProt Q8K1B8: the “log2 fold change” value is -0.239. Then UniProt Q8R0J7, with 0.168; and UniProt Q8K0Y7, with -0.00222.

In the case of UniProt Q8K0P3, the “log2 fold change” value was -0.157. As to UniProt Q8R3Q0, the “log2 fold change” value was -0.0227.
